Test results from the supplement of paper PMC12823440, “Inhibitors supercharge kinase turnover through native proteolytic circuits” (Nature, 2025).
Where a name gives a salt, the structure may show the parent alone. Some of the results follow. Hit calls seldom repeat between salt and free forms of one compound.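 Kinases, fused to nanoluciferase, were expressed in K562 cells; luminescence was measured every 4 h from 2 to 18 h as percent of control (DMSO = 100%, positive control = 0%). A time point is decreased if signal falls significantly (2 sigma). Hits were called by the authors by a rule that is not shown; the count of time points alone does not decide it.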

Sequences of proteins named here, by UniProt entry; tags and fusion partners are left off. A change or cut given only in a name is not applied to a line headed by its entry.
UniProt P07949, whole entry, looked up: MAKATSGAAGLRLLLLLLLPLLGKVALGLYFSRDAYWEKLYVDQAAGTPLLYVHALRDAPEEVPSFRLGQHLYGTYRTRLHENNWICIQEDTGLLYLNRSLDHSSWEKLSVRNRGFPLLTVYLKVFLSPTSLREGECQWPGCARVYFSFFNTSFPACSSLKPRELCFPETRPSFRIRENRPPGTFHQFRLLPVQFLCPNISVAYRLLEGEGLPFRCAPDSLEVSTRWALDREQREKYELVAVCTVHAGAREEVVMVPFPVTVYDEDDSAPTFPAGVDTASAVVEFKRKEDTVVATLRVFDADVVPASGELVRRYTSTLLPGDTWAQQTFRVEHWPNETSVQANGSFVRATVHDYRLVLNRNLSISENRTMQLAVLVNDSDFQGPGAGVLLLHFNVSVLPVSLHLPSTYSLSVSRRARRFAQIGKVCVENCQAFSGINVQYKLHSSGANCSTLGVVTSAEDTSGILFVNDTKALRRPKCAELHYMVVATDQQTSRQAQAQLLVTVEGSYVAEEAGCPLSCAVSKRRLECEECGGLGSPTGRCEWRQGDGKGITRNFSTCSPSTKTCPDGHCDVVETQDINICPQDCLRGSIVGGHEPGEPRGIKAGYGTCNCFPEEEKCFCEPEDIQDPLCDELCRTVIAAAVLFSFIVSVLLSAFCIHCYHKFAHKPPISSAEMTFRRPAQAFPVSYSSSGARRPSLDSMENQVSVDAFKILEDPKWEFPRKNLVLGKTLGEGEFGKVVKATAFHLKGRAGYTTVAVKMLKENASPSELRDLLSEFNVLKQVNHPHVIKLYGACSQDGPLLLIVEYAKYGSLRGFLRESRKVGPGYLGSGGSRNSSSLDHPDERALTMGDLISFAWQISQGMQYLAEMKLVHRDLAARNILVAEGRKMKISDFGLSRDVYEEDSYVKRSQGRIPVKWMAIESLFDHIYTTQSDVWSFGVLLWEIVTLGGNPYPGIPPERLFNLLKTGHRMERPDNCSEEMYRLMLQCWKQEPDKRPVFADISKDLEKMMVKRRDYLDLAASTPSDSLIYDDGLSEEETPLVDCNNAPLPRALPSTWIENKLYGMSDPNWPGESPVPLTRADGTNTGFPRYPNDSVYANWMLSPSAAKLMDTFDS
UniProt P07949, whole entry M918T, looked up: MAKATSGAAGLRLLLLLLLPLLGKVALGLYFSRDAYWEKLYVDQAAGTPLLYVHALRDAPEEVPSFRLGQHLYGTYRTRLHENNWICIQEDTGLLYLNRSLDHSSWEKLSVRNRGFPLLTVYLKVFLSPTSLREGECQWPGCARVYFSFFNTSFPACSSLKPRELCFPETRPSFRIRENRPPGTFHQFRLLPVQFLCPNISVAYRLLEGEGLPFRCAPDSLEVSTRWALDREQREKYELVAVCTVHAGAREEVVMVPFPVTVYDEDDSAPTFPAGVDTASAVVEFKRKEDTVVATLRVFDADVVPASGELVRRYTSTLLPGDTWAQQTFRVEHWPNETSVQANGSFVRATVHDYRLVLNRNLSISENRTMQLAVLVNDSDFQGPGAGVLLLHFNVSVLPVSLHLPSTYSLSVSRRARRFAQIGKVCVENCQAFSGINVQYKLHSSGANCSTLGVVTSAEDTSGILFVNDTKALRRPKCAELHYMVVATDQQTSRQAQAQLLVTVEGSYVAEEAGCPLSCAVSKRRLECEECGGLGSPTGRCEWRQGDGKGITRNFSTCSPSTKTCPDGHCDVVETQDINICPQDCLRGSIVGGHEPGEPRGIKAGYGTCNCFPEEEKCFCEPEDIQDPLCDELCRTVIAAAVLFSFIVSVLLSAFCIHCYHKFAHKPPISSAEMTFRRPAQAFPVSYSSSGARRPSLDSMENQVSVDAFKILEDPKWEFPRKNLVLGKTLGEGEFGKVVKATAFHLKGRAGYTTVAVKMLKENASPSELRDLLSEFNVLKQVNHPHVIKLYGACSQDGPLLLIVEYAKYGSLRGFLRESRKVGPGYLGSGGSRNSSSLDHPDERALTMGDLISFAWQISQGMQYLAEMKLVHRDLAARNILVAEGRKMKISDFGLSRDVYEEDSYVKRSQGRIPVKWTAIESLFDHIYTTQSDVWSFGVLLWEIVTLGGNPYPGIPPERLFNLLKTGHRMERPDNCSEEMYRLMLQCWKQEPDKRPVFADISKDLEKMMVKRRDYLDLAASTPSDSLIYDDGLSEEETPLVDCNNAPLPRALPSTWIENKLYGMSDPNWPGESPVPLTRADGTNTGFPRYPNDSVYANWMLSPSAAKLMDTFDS
UniProt Q9BRS2: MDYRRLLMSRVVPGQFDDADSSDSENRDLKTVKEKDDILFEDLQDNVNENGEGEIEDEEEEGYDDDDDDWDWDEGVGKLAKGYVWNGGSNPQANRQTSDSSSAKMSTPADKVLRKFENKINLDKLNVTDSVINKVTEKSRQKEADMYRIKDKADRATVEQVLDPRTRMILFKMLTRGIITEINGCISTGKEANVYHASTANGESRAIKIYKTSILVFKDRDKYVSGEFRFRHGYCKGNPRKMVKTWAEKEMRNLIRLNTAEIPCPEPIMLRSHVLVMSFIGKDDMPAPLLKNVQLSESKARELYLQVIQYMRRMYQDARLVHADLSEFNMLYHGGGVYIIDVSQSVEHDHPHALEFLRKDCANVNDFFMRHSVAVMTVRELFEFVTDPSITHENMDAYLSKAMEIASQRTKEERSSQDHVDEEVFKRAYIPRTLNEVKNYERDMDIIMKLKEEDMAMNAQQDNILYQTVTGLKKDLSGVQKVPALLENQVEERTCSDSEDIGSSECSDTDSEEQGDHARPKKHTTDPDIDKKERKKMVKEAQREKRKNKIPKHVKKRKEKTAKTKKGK
UniProt Q13546: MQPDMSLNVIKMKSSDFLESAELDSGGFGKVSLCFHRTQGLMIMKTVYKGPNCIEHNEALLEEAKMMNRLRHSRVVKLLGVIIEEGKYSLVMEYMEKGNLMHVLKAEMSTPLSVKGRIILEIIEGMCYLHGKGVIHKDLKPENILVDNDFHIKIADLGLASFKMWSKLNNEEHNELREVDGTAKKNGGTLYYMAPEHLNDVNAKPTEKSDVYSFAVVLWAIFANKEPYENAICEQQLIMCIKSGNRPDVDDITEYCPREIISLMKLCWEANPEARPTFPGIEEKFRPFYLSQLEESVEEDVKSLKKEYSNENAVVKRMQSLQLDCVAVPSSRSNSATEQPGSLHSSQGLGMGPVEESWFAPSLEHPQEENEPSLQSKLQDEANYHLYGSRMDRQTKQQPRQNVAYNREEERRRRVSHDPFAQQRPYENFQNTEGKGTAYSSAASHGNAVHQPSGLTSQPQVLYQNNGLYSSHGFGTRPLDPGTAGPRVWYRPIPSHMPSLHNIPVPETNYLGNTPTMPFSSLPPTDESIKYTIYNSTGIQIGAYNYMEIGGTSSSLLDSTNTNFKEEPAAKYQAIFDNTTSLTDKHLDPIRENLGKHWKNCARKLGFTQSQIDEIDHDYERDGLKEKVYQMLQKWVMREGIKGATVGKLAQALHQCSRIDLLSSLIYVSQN
UniProt Q01974, whole entry: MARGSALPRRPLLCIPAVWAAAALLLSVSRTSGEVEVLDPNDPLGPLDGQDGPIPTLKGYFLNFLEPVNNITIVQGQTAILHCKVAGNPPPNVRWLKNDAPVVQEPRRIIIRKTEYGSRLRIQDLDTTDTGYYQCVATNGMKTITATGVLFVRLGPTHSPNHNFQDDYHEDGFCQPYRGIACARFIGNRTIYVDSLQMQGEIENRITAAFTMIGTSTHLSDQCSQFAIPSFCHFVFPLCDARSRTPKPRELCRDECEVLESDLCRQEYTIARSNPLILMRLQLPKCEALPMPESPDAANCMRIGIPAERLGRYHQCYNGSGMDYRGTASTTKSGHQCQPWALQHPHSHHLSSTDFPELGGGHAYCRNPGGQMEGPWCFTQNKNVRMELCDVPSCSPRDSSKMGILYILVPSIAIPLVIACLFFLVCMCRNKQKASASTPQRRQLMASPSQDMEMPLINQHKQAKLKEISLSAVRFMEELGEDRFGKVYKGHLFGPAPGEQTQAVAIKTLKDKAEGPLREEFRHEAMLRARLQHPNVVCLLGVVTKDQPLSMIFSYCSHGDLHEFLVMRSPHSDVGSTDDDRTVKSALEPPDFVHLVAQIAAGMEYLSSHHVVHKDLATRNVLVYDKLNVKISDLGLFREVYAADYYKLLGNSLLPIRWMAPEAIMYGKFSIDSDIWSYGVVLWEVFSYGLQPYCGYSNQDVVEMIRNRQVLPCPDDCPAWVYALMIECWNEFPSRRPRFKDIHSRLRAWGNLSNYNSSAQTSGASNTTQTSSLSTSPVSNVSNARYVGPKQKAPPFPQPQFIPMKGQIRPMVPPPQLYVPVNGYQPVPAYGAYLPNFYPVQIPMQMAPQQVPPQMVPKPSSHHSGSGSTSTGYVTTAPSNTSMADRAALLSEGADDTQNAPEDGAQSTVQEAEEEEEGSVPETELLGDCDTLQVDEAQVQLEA
UniProt Q15418, whole entry: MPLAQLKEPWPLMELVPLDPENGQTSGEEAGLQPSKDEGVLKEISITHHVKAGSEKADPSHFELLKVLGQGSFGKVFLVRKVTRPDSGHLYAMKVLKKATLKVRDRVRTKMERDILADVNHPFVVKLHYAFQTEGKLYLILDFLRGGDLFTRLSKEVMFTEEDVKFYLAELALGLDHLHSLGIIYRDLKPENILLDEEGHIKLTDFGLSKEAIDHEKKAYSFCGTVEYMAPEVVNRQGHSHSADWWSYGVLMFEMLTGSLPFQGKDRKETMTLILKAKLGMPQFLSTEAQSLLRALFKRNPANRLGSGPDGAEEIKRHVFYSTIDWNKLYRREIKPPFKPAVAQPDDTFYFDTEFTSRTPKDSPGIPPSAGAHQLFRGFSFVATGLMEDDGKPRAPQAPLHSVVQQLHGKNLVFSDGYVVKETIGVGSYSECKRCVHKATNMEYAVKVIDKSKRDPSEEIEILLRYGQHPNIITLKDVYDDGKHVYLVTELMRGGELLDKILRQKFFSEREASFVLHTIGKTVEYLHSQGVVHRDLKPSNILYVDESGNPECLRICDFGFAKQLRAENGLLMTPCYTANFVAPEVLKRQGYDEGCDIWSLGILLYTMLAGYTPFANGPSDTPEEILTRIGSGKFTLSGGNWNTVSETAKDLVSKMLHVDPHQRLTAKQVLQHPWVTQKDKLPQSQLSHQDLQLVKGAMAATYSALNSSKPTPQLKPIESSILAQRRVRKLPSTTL
UniProt Q9NYA1, whole entry: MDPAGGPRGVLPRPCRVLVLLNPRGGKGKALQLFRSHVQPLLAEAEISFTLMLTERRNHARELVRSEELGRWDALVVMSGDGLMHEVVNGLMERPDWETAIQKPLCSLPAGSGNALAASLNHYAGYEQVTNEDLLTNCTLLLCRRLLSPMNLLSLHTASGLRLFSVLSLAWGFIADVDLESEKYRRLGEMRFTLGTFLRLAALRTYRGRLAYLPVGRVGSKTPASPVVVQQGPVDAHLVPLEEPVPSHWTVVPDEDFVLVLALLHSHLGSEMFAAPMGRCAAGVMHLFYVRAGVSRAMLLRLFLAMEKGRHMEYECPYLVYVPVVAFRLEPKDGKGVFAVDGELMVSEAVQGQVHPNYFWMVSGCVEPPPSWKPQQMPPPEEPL
UniProt Q9Y6E0: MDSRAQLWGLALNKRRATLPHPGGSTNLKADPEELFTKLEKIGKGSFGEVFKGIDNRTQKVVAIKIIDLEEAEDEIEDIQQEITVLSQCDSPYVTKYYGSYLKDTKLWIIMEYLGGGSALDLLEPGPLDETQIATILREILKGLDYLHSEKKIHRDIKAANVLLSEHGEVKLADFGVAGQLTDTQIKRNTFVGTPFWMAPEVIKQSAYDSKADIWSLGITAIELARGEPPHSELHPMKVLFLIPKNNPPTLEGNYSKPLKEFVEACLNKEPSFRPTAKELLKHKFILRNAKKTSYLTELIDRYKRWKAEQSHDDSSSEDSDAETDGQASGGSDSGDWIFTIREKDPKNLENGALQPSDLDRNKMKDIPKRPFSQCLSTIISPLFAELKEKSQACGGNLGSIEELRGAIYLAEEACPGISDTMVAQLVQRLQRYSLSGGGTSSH

Key:
Assay in all cases: kinase-Nluc reporter destabilization hit call (1 = scored as downregulated) (binary); higher = compound decreases kinase abundance
Details in all cases: K562; 2-18 h
RET = RET (UniProt P07949)
[1] = target: RET_M918T (clone: RET_mut) (UniProt P07949)
RIOK1 = RIOK1 (UniProt Q9BRS2)
RIPK1 = RIPK1 (UniProt Q13546)
RIPK2 = RIPK2 (UniProt O43353)
ROR2 = ROR2 (UniProt Q01974)
RPS6KA1 = RPS6KA1 (UniProt Q15418)
SPHK1 = SPHK1 (UniProt Q9NYA1)
SRC = SRC (UniProt P12931)
STK24 = STK24 (UniProt Q9Y6E0)

Measured: kinase-Nluc reporter destabilization hit call

COc1c(O)cc2oc3cc(O)c(CC=C(C)C)c(O)c3c(=O)c2c1CCC(C)(C)O [Garcinone D] (2.5 µM)
inactive: RET 0 | [1] 0 | RIOK1 = 0 | RIPK1 = 0 | RIPK2 = 0 | ROR2 = 0 | RPS6KA1 = 0 | SPHK1 = 0 | SRC 0 | STK24 = 0

O[C@H]1CC[C@H](Nc2ncc3nc(Nc4c(F)cc(F)cc4F)n([C@H]4CCOC4)c3n2)CC1 [Tanzisertib] (10 µM)
inactive: RET 0 | [1] 0 | RIOK1 = 0 | RIPK1 = 0 | RIPK2 = 0 | ROR2 = 0 | RPS6KA1 = 0 | SPHK1 = 0 | SRC 0 | STK24 = 0

Cc1cc(C(C)Nc2ccccc2)c2nc(N3CCOCC3)cc(=O)n2c1 (stereo not given) (10 µM)
inactive: RET 0 | [1] 0 | RIOK1 = 0 | RIPK1 = 0 | RIPK2 = 0 | ROR2 = 0 | RPS6KA1 = 0 | SPHK1 = 0 | SRC 0 | STK24 = 0

CC(C)c1cc(/C=C(\C#N)C(N)=O)cc(C(C)C)c1O (10 µM)
inactive: RET 0 | [1] 0 | RIOK1 = 0 | RIPK1 = 0 | RIPK2 = 0 | ROR2 = 0 | RPS6KA1 = 0 | SPHK1 = 0 | SRC 0 | STK24 = 0

COC(=O)N[C@@H](C)CNc1nccc(-c2cn(C(C)C)nc2-c2cc(Cl)cc(NS(C)(=O)=O)c2F)n1 [Encorafenib] (10 µM)
inactive: RET 0 | [1] 0 | RIOK1 = 0 | RIPK1 = 0 | RIPK2 = 0 | ROR2 = 0 | RPS6KA1 = 0 | SPHK1 = 0 | SRC 0 | STK24 = 0

O=C(O)c1ccccc1Nc1cccc(C(F)(F)F)c1 [Flufenamic acid] (10 µM)
inactive: RET 0 | [1] 0 | RIOK1 = 0 | RIPK1 = 0 | RIPK2 = 0 | ROR2 = 0 | RPS6KA1 = 0 | SPHK1 = 0 | SRC 0 | STK24 = 0

Nc1n[nH]c2cc(-c3ccc(=O)n(Cc4cccc(Cl)c4)c3)ccc12 (10 µM)
inactive: RET 0 | [1] 0 | RIOK1 = 0 | RIPK1 = 0 | RIPK2 = 0 | ROR2 = 0 | RPS6KA1 = 0 | SPHK1 = 0 | SRC 0 | STK24 = 0

COc1cc(N2CCC(N(C)C)CC2)ccc1Nc1ncc(Cl)c(Nc2ccccc2P(C)(C)=O)n1 (2.5 µM)
inactive: RET 0 | [1] 0 | RIOK1 = 0 | RIPK1 = 0 | RIPK2 = 0 | ROR2 = 0 | RPS6KA1 = 0 | SPHK1 = 0 | SRC 0 | STK24 = 0

COc1ccc2c(=O)c(-c3ccccc3)coc2c1 [7-Methoxyisoflavone] (10 µM)
inactive: RET 0 | [1] 0 | RIOK1 = 0 | RIPK1 = 0 | RIPK2 = 0 | ROR2 = 0 | RPS6KA1 = 0 | SPHK1 = 0 | SRC 0 | STK24 = 0

COc1nc(-c2cccc3c2OCCO3)ccc1Nc1ccc(CN(C)C)cc1 [RAS inhibitor Abd-7] (10 µM)
inactive: RET 0 | [1] 0 | RIOK1 = 0 | RIPK1 = 0 | RIPK2 = 0 | ROR2 = 0 | RPS6KA1 = 0 | SPHK1 = 0 | SRC 0 | STK24 = 0

C[C@H]1[C@H](OC(=O)CCC(=O)O)O[C@@H]2O[C@@]3(C)CC[C@H]4[C@H](C)CC[C@@H]1[C@@]24OO3 [Artesunate] (2.5 µM)
inactive: RET 0 | [1] 0 | RIOK1 = 0 | RIPK1 = 0 | RIPK2 = 0 | ROR2 = 0 | RPS6KA1 = 0 | SPHK1 = 0 | SRC 0 | STK24 = 0

CCOC(=O)c1c2c3c(cccc3[nH]c1=O)C(=O)c1ccccc1-2 (10 µM)
inactive: RET 0 | [1] 0 | RIOK1 = 0 | RIPK1 = 0 | RIPK2 = 0 | ROR2 = 0 | RPS6KA1 = 0 | SPHK1 = 0 | SRC 0 | STK24 = 0

C[C@@H]1CCc2ncc(F)cc2[C@H]2CCCN2c2ccn3ncc(c3n2)C(=O)N1 [Selitrectinib] (10 µM)
inactive: RET 0 | [1] 0 | RIOK1 = 0 | RIPK1 = 0 | RIPK2 = 0 | ROR2 = 0 | RPS6KA1 = 0 | SPHK1 = 0 | SRC 0 | STK24 = 0

N=C(N)NC(=N)NCCc1ccccc1 [Phenformin (hydrochloride)] (10 µM)
inactive: RET 0 | [1] 0 | RIOK1 = 0 | RIPK1 = 0 | RIPK2 = 0 | ROR2 = 0 | RPS6KA1 = 0 | SPHK1 = 0 | SRC 0 | STK24 = 0

Nc1nc2cc(-c3ccc4ncc(C(=O)N5CCOCC5)n4c3)ccc2o1 [Serabelisib] (10 µM)
inactive: RET 0 | [1] 0 | RIOK1 = 0 | RIPK1 = 0 | RIPK2 = 0 | ROR2 = 0 | RPS6KA1 = 0 | SPHK1 = 0 | SRC 0 | STK24 = 0

COc1ccccc1/C=C1\C(=O)Nc2ccccc21 (10 µM)
inactive: RET 0 | [1] 0 | RIOK1 = 0 | RIPK1 = 0 | RIPK2 = 0 | ROR2 = 0 | RPS6KA1 = 0 | SPHK1 = 0 | SRC 0 | STK24 = 0

C=CC(=O)Nc1cccc(-n2c(=O)cc(C)c3cnc(Nc4ccc(OCCN(C)C)cc4OC)nc32)c1 (10 µM)
inactive: RET 0 | [1] 0 | RIOK1 = 0 | RIPK1 = 0 | RIPK2 = 0 | ROR2 = 0 | RPS6KA1 = 0 | SPHK1 = 0 | SRC 0 | STK24 = 0

CCOc1ccccc1C=C1C(=O)Nc2ccccc21 (10 µM)
inactive: RET 0 | [1] 0 | RIOK1 = 0 | RIPK1 = 0 | RIPK2 = 0 | ROR2 = 0 | RPS6KA1 = 0 | SPHK1 = 0 | SRC 0 | STK24 = 0

CC[C@@H]1C(=O)N(C)c2cnc(Nc3ccc(C(=O)N[C@H]4CC[C@H](N5CCN(CC6CC6)CC5)CC4)cc3OC)nc2N1C(C)C [Volasertib] (2.5 µM)
inactive: RET 0 | [1] 0 | RIOK1 = 0 | RIPK1 = 0 | RIPK2 = 0 | ROR2 = 0 | RPS6KA1 = 0 | SPHK1 = 0 | SRC 0 | STK24 = 0

Random excerpt: two compounds from above, in no set order.
CCOc1ccccc1C=C1C(=O)Nc2ccccc21 (10 µM)
inactive: RET 0 | [1] 0 | RIOK1 = 0 | RIPK1 = 0 | RIPK2 = 0 | ROR2 = 0 | RPS6KA1 = 0 | SPHK1 = 0 | SRC 0 | STK24 = 0

C=CC(=O)Nc1cccc(-n2c(=O)cc(C)c3cnc(Nc4ccc(OCCN(C)C)cc4OC)nc32)c1 (10 µM)
inactive: RET 0 | [1] 0 | RIOK1 = 0 | RIPK1 = 0 | RIPK2 = 0 | ROR2 = 0 | RPS6KA1 = 0 | SPHK1 = 0 | SRC 0 | STK24 = 0

Continuation:

O=[N+]([O-])c1ccc(Sc2cccc[n+]2[O-])c2nonc12 (2.5 µM)
inactive: RET 0 | [1] 0 | RIOK1 = 0 | RIPK1 = 0 | RIPK2 = 0 | ROR2 = 0 | RPS6KA1 = 0 | SPHK1 = 0 | SRC 0 | STK24 = 0

CC(C)(O)[C@@H]1CC[C@](C)([C@H]2[C@@H](O)C[C@@]3(C)[C@@H]4C[C@H](O[C@@H]5O[C@H](CO)[C@@H](O)[C@H](O)[C@H]5O)[C@H]5C(C)(C)[C@@H](O[C@@H]6OC[C@@H](O)[C@H](O)[C@H]6O[C@@H]6O[C@H](CO)[C@@H](O)[C@H](O)[C@H]6O)CC[C@@]56C[C@@]46CC[C@]23C)O1 [Astragaloside VI] (10 µM)
inactive: RET 0 | [1] 0 | RIOK1 = 0 | RIPK1 = 0 | RIPK2 = 0 | ROR2 = 0 | RPS6KA1 = 0 | SPHK1 = 0 | SRC 0 | STK24 = 0

O=c1ccc2ccc(O)c(O)c2o1 [Daphnetin] (10 µM)
inactive: RET 0 | [1] 0 | RIOK1 = 0 | RIPK1 = 0 | RIPK2 = 0 | ROR2 = 0 | RPS6KA1 = 0 | SPHK1 = 0 | SRC 0 | STK24 = 0

O=S(=O)(c1cccc2cnccc12)N1CCNCC1 (10 µM)
inactive: RET 0 | [1] 0 | RIOK1 = 0 | RIPK1 = 0 | RIPK2 = 0 | ROR2 = 0 | RPS6KA1 = 0 | SPHK1 = 0 | SRC 0 | STK24 = 0

C=C(F)C(=O)N1CCN(c2nc(OC[C@@H]3CCCN3C)nc3c2CCN(c2cccc4cccc(Cl)c24)C3)C[C@@H]1CC#N (2.5 µM)
inactive: RET 0 | [1] 0 | RIOK1 = 0 | RIPK1 = 0 | RIPK2 = 0 | ROR2 = 0 | RPS6KA1 = 0 | SPHK1 = 0 | SRC 0 | STK24 = 0

O=C(Nc1ccc(Cl)cc1)C1CCCN(C(=O)c2cccc(-c3ccco3)c2)C1 (stereo not given) (2.5 µM)
inactive: RET 0 | [1] 0 | RIOK1 = 0 | RIPK1 = 0 | RIPK2 = 0 | ROR2 = 0 | RPS6KA1 = 0 | SPHK1 = 0 | SRC 0 | STK24 = 0

O=C(NOCCO)c1ccc2cncn2c1Nc1ccc(I)cc1F (10 µM)
inactive: RET 0 | [1] 0 | RIOK1 = 0 | RIPK1 = 0 | RIPK2 = 0 | ROR2 = 0 | RPS6KA1 = 0 | SPHK1 = 0 | SRC 0 | STK24 = 0

CN(C)c1nc2c(Br)c(Br)c(Br)c(Br)c2n1CC(=O)O (10 µM)
inactive: RET 0 | [1] 0 | RIOK1 = 0 | RIPK1 = 0 | RIPK2 = 0 | ROR2 = 0 | RPS6KA1 = 0 | SPHK1 = 0 | SRC 0 | STK24 = 0

CN(CC(=O)N(Cc1ccc(C2CCCCC2)cc1)c1ccc(C(=O)O)c(O)c1)S(=O)(=O)c1c(F)c(F)c(F)c(F)c1F (2.5 µM)
inactive: RET 0 | [1] 0 | RIOK1 = 0 | RIPK1 = 0 | RIPK2 = 0 | ROR2 = 0 | RPS6KA1 = 0 | SPHK1 = 0 | SRC 0 | STK24 = 0

Cc1ccc(-c2nn(C(C)(C)CNC(=O)c3ccncc3)c3ncnc(N)c23)cc1 (2.5 µM)
inactive: RET 0 | [1] 0 | RIOK1 = 0 | RIPK1 = 0 | RIPK2 = 0 | ROR2 = 0 | RPS6KA1 = 0 | SPHK1 = 0 | SRC 0 | STK24 = 0
